Results deposited as PubChem BioAssay AID1259254 (NCATS, 2017).

Purpose: 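Genome-wide screen for genes that prevent DNA re-replication in cancer cells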 (primary screen)
System: human HCT116 colorectal cancer cells
Reagent: single siRNA against human genes
Time to read-out: 3 days
Measured: 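Imaged Hoechst DNA stain sorts each cell into a cycle phase by DNA amount; per plate, G2 fraction set to 0% for non-targeting and 100% for GMNN siRNA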
Direction: G2 robust z-score and G2 cells, % of GMNN control: higher = more G2 cells, more excess DNA replication
Hit rule: 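Active siRNAs have a G2 robust z of 5 or more median absolute deviations over the median, which in these data means about 38% or higher of GMNN control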
Here is an unselected part of about 59,000 deposited reagents. In the full data, about 1,550 (2.6%) were called active. 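G2 share is only a proxy for re-replication; each gene was hit by three separate siRNAs, and active genes were retested.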 Not all columns of the deposit are shown. Not stated in the record: the amount of reagent.

| gene | PubChem SID | G2 robust z-score | G2 cells, % of GMNN control | outcome |
| --- | --- | --- | --- | --- |
| SNF8 (SNF8 subunit of ESCRT-II) | SID160730327 | -0.542 | -0.844 | inactive |
| SNF8 (SNF8 subunit of ESCRT-II) | SID160730328 | 3.5 | 27.6 | inactive |
| SNF8 (SNF8 subunit of ESCRT-II) | SID160730329 | -0.341 | 0.57 | inactive |
| CILP (cartilage intermediate layer protein) | SID160720141 | -0.0416 | 2.67 | inactive |
| CILP (cartilage intermediate layer protein) | SID160720142 | -0.000988 | 2.96 | inactive |
| CILP (cartilage intermediate layer protein) | SID160720143 | -1.04 | -4.34 | inactive |
| ZRSR2 | SID160719752 | -0.532 | -0.775 | inactive |
| ZRSR2 | SID160719753 | -0.594 | -1.21 | inactive |
| ZRSR2 | SID160719754 | -0.648 | -1.59 | inactive |
| TBC1D27P (TBC1 domain family member 27, pseudogene) | SID160754670 | -0.978 | -3.92 | inactive |
| TBC1D27P (TBC1 domain family member 27, pseudogene) | SID160754671 | 0.879 | 9.15 | inactive |
| TBC1D27P (TBC1 domain family member 27, pseudogene) | SID160754672 | -0.157 | 1.86 | inactive |
| OR7A10 (olfactory receptor family 7 subfamily A member 10) | SID160766593 | 2.76 | 22.4 | inactive |
| OR7A10 (olfactory receptor family 7 subfamily A member 10) | SID160766594 | -0.383 | 0.275 | inactive |
| OR7A10 (olfactory receptor family 7 subfamily A member 10) | SID160766595 | -0.225 | 1.39 | inactive |
| TEX101 (testis expressed 101) | SID160751260 | 1.25 | 11.8 | inactive |
| TEX101 (testis expressed 101) | SID160751261 | -0.474 | -0.37 | inactive |
| TEX101 (testis expressed 101) | SID160751263 | -0.524 | -0.72 | inactive |
| ASAP3 (ArfGAP with SH3 domain, ankyrin repeat and PH domain 3) | SID160743908 | 3.28 | 26 | inactive |
| ASAP3 (ArfGAP with SH3 domain, ankyrin repeat and PH domain 3) | SID160743909 | -0.185 | 1.66 | inactive |
| ASAP3 (ArfGAP with SH3 domain, ankyrin repeat and PH domain 3) | SID160743910 | -0.524 | -0.719 | inactive |
| TAF6L (TATA-box binding protein associated factor 6 like) | SID160728902 | -0.214 | 1.46 | inactive |
| TAF6L (TATA-box binding protein associated factor 6 like) | SID160728903 | -0.878 | -3.21 | inactive |
| TAF6L (TATA-box binding protein associated factor 6 like) | SID160728904 | -1.05 | -4.43 | inactive |
| FABP5 (fatty acid binding protein 5) | SID160763440 | -1.45 | -7.26 | inactive |
| FABP5 (fatty acid binding protein 5) | SID160763448 | -0.812 | -2.74 | inactive |
| FABP5 (fatty acid binding protein 5) | SID160763458 | -0.731 | -2.18 | inactive |

Quoted from above for reference:
| gene | PubChem SID | G2 robust z-score | G2 cells, % of GMNN control | outcome |
| --- | --- | --- | --- | --- |
| SNF8 (SNF8 subunit of ESCRT-II) | SID160730328 | 3.5 | 27.6 | inactive |
| SNF8 (SNF8 subunit of ESCRT-II) | SID160730329 | -0.341 | 0.57 | inactive |
| CILP (cartilage intermediate layer protein) | SID160720141 | -0.0416 | 2.67 | inactive |
| CILP (cartilage intermediate layer protein) | SID160720142 | -0.000988 | 2.96 | inactive |
| CILP (cartilage intermediate layer protein) | SID160720143 | -1.04 | -4.34 | inactive |
| ZRSR2 | SID160719752 | -0.532 | -0.775 | inactive |
| ZRSR2 | SID160719753 | -0.594 | -1.21 | inactive |

Additional results follow.
| gene | PubChem SID | G2 robust z-score | G2 cells, % of GMNN control | outcome |
| --- | --- | --- | --- | --- |
| TJP2 (tight junction protein 2) | SID160722156 | -0.751 | -2.32 | inactive |
| TJP2 (tight junction protein 2) | SID160722157 | -0.687 | -1.87 | inactive |
| TJP2 (tight junction protein 2) | SID160722158 | -0.29 | 0.929 | inactive |
| CACNA1D (calcium voltage-gated channel subunit alpha1 D) | SID160735266 | -0.327 | 0.664 | inactive |
| CACNA1D (calcium voltage-gated channel subunit alpha1 D) | SID160735276 | 0.0368 | 3.23 | inactive |
| CACNA1D (calcium voltage-gated channel subunit alpha1 D) | SID160735287 | -0.0669 | 2.5 | inactive |
| A1CF (APOBEC1 complementation factor) | SID160739421 | 1.23 | 11.6 | inactive |
| A1CF (APOBEC1 complementation factor) | SID160739422 | -0.464 | -0.298 | inactive |
| A1CF (APOBEC1 complementation factor) | SID160739423 | 2.03 | 17.3 | inactive |
| MT1IP (metallothionein 1I, pseudogene) | SID160733872 | 2.83 | 22.9 | inactive |
| MT1IP (metallothionein 1I, pseudogene) | SID160769184 | 0.117 | 3.79 | inactive |
| MT1IP (metallothionein 1I, pseudogene) | SID160769185 | -0.374 | 0.333 | inactive |
| DDX55 (DEAD-box helicase 55) | SID160746601 | 2.73 | 22.2 | inactive |
| DDX55 (DEAD-box helicase 55) | SID160746602 | 2.97 | 23.8 | inactive |
| DDX55 (DEAD-box helicase 55) | SID160746603 | -0.987 | -3.97 | inactive |
| RTL9 (retrotransposon Gag like 9) | SID160746189 | -0.454 | -0.225 | inactive |
| RTL9 (retrotransposon Gag like 9) | SID160746190 | -0.805 | -2.69 | inactive |
| RTL9 (retrotransposon Gag like 9) | SID160746191 | -0.918 | -3.49 | inactive |
| OR51D1 (olfactory receptor family 51 subfamily D member 1) | SID160766332 | 0.674 | 7.71 | inactive |
| OR51D1 (olfactory receptor family 51 subfamily D member 1) | SID160766333 | -0.267 | 1.09 | inactive |
| OR51D1 (olfactory receptor family 51 subfamily D member 1) | SID160766334 | -0.877 | -3.2 | inactive |
| SERPINB3 (serpin family B member 3) | SID160716370 | 0.522 | 6.64 | inactive |
| SERPINB3 (serpin family B member 3) | SID160716371 | -0.0609 | 2.54 | inactive |
| SERPINB3 (serpin family B member 3) | SID160716372 | 9.99 | 73.3 | active |
| NDUFAF2 (NADH:ubiquinone oxidoreductase complex assembly factor 2) | SID160754145 | -0.985 | -3.96 | inactive |
| NDUFAF2 (NADH:ubiquinone oxidoreductase complex assembly factor 2) | SID160754146 | -1.05 | -4.39 | inactive |
| NDUFAF2 (NADH:ubiquinone oxidoreductase complex assembly factor 2) | SID160754147 | 0.388 | 5.7 | inactive |
| H1-3 (H1.3 linker histone, cluster member) | SID160774791 | -0.11 | 2.19 | inactive |
| H1-3 (H1.3 linker histone, cluster member) | SID160774792 | 0.575 | 7.01 | inactive |
| H1-3 (H1.3 linker histone, cluster member) | SID160774795 | 0.076 | 3.5 | inactive |
| NEB (nebulin) | SID160777853 | -0.409 | 0.0918 | inactive |
| NEB (nebulin) | SID160777854 | -1.27 | -6 | inactive |
| NEB (nebulin) | SID160777855 | -0.309 | 0.796 | inactive |
| TRIM59 (tripartite motif containing 59) | SID160763893 | 1.86 | 16.1 | inactive |
| TRIM59 (tripartite motif containing 59) | SID160763894 | 1.26 | 11.9 | inactive |
| TRIM59 (tripartite motif containing 59) | SID160763895 | -0.46 | -0.268 | inactive |
| ZMYM2 (zinc finger MYM-type containing 2) | SID160719261 | -0.586 | -1.16 | inactive |
| ZMYM2 (zinc finger MYM-type containing 2) | SID160719262 | -0.711 | -2.04 | inactive |
| ZMYM2 (zinc finger MYM-type containing 2) | SID160719263 | -0.228 | 1.37 | inactive |
| DNAH6 (dynein axonemal heavy chain 6) | SID160763452 | 3.19 | 25.4 | inactive |
| DNAH6 (dynein axonemal heavy chain 6) | SID160763453 | -0.455 | -0.231 | inactive |
| DNAH6 (dynein axonemal heavy chain 6) | SID160763454 | -0.444 | -0.157 | inactive |
